Assay results as given in article PMC3615554 (Journal of biomolecular screening, 2012).

Assays:
[1] = tested on: EGFR activation (granule formation) in A549-EGFRB cells; test: EGFRB assay, granule count readout; assay type: cell-based; settings: read-out: HTS % inhibition at 10 μM Granule count
A549-EGFRB cells = test: EGFRB assay, nuclei count readout; assay type: cell-based
[2] = tested on: A549 cells (wild type EGFR); test: Alamar Blue viability assay, A549; assay type: cell-based; settings: Homo sapiens, A549, 120 h, read-out: Alamar Blue viability assay IC50 A549
[3] = tested on: H2030 cells (wild type EGFR); test: Alamar Blue viability assay, H2030; assay type: cell-based; settings: Homo sapiens, NCI-H2030, 120 h, read-out: Alamar Blue viability assay IC50 H2030
[4] = tested on: H3255 cells (L858R EGFR mutation); test: Alamar Blue viability assay, H3255; assay type: cell-based; settings: Homo sapiens, NCI-H3255, 120 h, read-out: Alamar Blue viability assay IC50 H3255
[5] = tested on: HCC4011 cells (L858R EGFR mutation); test: Alamar Blue viability assay, HCC4011; assay type: cell-based; settings: Homo sapiens, HCC4011, 120 h, read-out: Alamar Blue viability assay IC50 HCC4011
recombinant EGFR kinase = settings: read-out: Reported IC50 toward recombinant EGFR kinase; cited from earlier work

- IC50 or EC50 (nM) Nuclei count (A549-EGFRB cells; inhibitors, dose response up to 10 μM, N.E. = no effect, * = partial inhibition): N.E.^*
- IC50 [2]: 340 ± 30 nM
- IC50 [3]: 2000 ± 1700 nM
- IC50 [4]: 1900 ± 200 nM
- IC50 [5]: 2300 ± 600 nM
SMILES: CO[C@@H]1[C@H](N(C)C(=O)c2ccccc2)C[C@H]2O[C@]1(C)n1c3ccccc3c3c4c(c5c6ccccc6n2c5c31)C(=O)NC4 [PKC 412]
- inhibition at 10 µM [1]: 68%
- inhibition at 10 µM (A549-EGFRB cells; read-out: HTS % inhibition at 10 μM Nuclei count): 35%
- IC50 (recombinant EGFR kinase): 3000 nM
